No constants are given. Whether binding was seen depends on the method and setting. In cells and extracts the contact can be indirect. Some binding calls cover weakened binding; strength is not graded here.
Columns and labels:
[1] = biological target: c-Jun (of the immunoprecipitation with wild and mutant Smad3, Figure 7B) (not stated (Xenopus or rat cDNA cloned)) (UniProt P17325); assay: co-IP; Xenopus embryo lysate; c-Jun with wild Smad3 or Smad3 mutants; immunoprecipitation and western blot
[2] = biological target: flag-tagged rat c-Jun (rat) (UniProt P17325); assay: co-IP; whole Xenopus embryos injected with AP-1 (flag-tagged rat c-jun and rat c-fos mRNAs) alone or together with Smad3 mRNA, stage 10.5; lysis buffer 50 mM Tris pH 7.4, 150 mM NaCl, 1% NP-40, 0.25% sodium deoxycholate, 0.1% SDS; IP with anti-Flag, anti-Myc or anti-c-Fos, Protein A/G agarose, western …
[3] = biological target: rat c-Fos (rat) (UniProt P12841); assay: as above

Sequences of proteins named here, by UniProt entry; tags and fusion partners are left off. A change or cut given only in a name is not applied to a line headed by its entry. A line that says so, or that is headed by a name, gives the form on record, which may keep a tag or linker.
UniProt P17325: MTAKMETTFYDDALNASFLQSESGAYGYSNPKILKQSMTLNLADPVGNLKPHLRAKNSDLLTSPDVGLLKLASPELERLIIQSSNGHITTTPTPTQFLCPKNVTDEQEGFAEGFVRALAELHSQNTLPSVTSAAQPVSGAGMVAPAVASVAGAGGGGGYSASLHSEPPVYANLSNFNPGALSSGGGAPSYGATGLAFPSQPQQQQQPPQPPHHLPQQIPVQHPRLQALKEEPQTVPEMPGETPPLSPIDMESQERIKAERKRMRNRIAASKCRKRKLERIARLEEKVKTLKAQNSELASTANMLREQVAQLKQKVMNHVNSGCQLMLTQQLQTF
UniProt P12841: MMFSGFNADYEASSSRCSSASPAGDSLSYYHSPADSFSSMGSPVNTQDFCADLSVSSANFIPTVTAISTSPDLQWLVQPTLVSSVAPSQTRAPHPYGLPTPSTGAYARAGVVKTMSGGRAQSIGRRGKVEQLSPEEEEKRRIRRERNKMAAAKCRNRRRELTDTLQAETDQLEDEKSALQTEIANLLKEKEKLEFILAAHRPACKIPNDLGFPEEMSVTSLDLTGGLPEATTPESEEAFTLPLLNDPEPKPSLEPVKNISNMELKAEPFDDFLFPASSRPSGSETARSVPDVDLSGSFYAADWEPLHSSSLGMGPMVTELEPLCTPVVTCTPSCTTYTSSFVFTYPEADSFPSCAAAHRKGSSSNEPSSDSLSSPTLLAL
UniProt P84022: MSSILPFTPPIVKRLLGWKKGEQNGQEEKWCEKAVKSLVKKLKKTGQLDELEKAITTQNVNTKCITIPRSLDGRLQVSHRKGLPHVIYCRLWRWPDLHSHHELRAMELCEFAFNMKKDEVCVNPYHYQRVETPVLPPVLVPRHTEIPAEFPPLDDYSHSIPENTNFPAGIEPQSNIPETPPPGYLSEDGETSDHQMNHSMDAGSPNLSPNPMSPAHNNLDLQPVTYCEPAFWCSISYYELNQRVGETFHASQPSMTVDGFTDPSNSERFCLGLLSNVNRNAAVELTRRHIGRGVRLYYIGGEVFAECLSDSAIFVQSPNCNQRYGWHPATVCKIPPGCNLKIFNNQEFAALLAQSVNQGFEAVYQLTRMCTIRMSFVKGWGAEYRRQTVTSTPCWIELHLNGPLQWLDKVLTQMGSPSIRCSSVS
Smad3 (K40, 41, 43, 44A) (P84022, form named): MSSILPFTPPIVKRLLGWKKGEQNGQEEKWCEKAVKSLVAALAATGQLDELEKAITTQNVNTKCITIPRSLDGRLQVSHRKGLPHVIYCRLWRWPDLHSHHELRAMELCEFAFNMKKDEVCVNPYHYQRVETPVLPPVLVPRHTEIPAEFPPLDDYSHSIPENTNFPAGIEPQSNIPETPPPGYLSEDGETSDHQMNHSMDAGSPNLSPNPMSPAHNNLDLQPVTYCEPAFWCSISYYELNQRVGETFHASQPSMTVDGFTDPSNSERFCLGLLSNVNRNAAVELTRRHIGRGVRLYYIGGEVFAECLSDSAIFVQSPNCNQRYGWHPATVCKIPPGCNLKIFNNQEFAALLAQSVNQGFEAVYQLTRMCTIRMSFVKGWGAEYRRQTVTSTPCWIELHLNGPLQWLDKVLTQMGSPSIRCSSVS

binding [1] | binding [2] | binding [3] | Substance
binds | binds | binds | 6myc-Smad3 (from UniProt P84022 1-425)
no binding |  |  | Smad3 (K40, 41, 43, 44A) (from UniProt P84022 1-425)
